# Laboratory results taken from PubChem BioAssay AID1671190 (National Center for Advancing Translational Sciences (NCATS), 2021).
# Sequences of proteins named here, by UniProt entry; tags and fusion partners are left off. A change or cut given only in a name is not applied to a line headed by its entry.
# UniProt P18054: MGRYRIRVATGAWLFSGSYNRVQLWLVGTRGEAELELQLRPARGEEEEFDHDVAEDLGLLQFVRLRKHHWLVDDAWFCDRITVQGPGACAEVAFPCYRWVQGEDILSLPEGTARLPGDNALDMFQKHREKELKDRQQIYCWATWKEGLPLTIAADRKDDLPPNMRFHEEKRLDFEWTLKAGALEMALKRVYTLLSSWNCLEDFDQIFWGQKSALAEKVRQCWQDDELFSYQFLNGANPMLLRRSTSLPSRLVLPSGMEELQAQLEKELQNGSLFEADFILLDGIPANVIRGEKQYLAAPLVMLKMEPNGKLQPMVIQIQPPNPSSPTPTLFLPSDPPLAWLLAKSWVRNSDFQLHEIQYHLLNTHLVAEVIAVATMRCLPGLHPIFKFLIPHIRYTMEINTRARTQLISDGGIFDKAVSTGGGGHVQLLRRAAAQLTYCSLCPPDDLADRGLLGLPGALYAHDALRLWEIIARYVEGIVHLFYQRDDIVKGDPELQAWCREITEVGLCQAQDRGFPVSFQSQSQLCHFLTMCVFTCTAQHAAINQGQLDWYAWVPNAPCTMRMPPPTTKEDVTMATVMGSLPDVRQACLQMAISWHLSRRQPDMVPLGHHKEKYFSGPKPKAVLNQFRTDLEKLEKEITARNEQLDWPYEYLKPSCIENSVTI
# “And” between values parts separate entries of the source, which are not always exact repeats. Equal values may be shown once. Hit rate of the full screen: of about 580,000 compounds, about 6,100 (1.1%) were called active. Inconclusive means that the source gave no clear call. Such entries were picked first, then a sample of the others. Calls follow the shape of the dose curve; as a rule, active = well fitted inhibition curve with a large enough effect; inconclusive = small, poorly fitted or top-dose-only effect, or another doubt; inactive = no such curve, though single readings can be large or run the other way. Where the call is inconclusive, the potency comes from a doubtful curve fit.
# Target: Polyunsaturated fatty acid lipoxygenase ALOX12 (Homo sapiens) (UniProt P18054)
# Assay: Primary qHTS assay for inhibitors of human arachidonate 12S-lipoxygenase (ALOX12): Round 2
# Conditions: purified 12hLO, xylenol orange hydroperoxide absorbance; activity change, negative = inhibition: at 108 µM (top of the series) unless noted
# How it was run: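 Purified human 12hLO (150 nM final) in 25 mM Hepes, 0.01% Triton X-100, pH 7.0 was preincubated 15 min at room temperature with compound. Then 40 uM arachidonic acid was added, 30 min. Hydroperoxide was read by Fe-XO absorbance ratio 573/405 nm.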
# % is scaled to controls: 0 for no effect and ±100 for the full control effect; potency is read from the fitted curve at half-maximal effect.
Compound,Potency,"activity change, negative = inhibition"
C=CCn1c(CSc2ccccc2[N+](=O)[O-])n[nH]c1=S,"inconclusive: 39.8 µM [inhibitor, partial curve, poor fit]",–
O=C1CSc2ccc(S(=O)(=O)CCC(=O)NC3CCCCC3)cc2N1,–,inactive: 1.12%
CC(C)(Sc1cc(C(C)(C)C)c(O)c(C(C)(C)C)c1)Sc1cc(C(C)(C)C)c(O)c(C(C)(C)C)c1,"inconclusive: 17.8 µM [inhibitor, partial curve, poor fit] and inconclusive: 3.16 µM [inhibitor, full curve, poor fit]",–
CC1(C(=O)NCc2cccc(Cl)c2)Cc2c(-c3ccc(C(N)=O)cc3)ccnc2O1 (stereo not drawn),"inconclusive: 126 µM [inhibitor, single point]",–
O=C1NC2(NN1c1ccccc1)C1CC3CC(C1)CC2C3 (stereo not drawn),"inconclusive: 39.8 µM [inhibitor, partial curve, poor fit]",–
CN(C)c1ccc(C=C2C(=O)OC(C)(C)OC2=O)cc1,"inconclusive: 50.1 µM [inhibitor, partial curve, poor fit]",–
CC/C(C)=N/NC(=O)C(O)(c1ccccc1)c1ccccc1,–,inactive: 3.81%
CCc1nnsc1C(=O)N(C)Cc1cccc(Cl)c1,"inconclusive: 0.316 µM [inhibitor, full curve, poor fit]",–
CCc1ccc(Nc2nn3c(=O)c4cc5c(cc4nc3s2)OCO5)cc1,"inconclusive: 7.08 µM [inhibitor, full curve, poor fit]",–
COc1c(F)cc(CN2CCCC3(CCNC3)C2)cc1F (stereo not drawn),"inconclusive: 17.8 µM [inhibitor, single point]",–
O=C(O)c1ccc(OCc2nnnn2-c2ccc(Br)cc2)cc1,"inconclusive: 79.4 µM [inhibitor, partial curve, poor fit]",–
COC(=O)CCCC(=O)Nc1ccc(Cl)c(Cl)c1,"inconclusive: 89.1 µM [inhibitor, single point]",–
CCN(CC)S(=O)(=O)c1cccc(C(=O)N/N=C/c2ccccc2OCC(=O)O)c1,"inconclusive: 0.316 µM [inhibitor, full curve, poor fit]",–
Cc1cccc(NC2=C(C#N)C(=O)NC3(CCCC3)S2)c1,"inconclusive: 39.8 µM [inhibitor, partial curve, poor fit]",–
CCCNC(=O)C1CN(C(=O)c2nn(Cc3ccccc3)c(=O)c3ccccc23)c2ccccc2O1 (stereo not drawn),"inconclusive: 0.447 µM [inhibitor, full curve, poor fit]",–
Cc1cc(NC(=O)c2coc(Br)c2)no1,"inconclusive: 89.1 µM [inhibitor, single point]",–
O=C(Cc1cccc(F)c1)N1CCC2(CC1)N(c1ccccc1)C(=O)CS2(=O)=O,–,inactive: 28.6%
O=C(Nc1ccc(O)cc1)c1ccc(NC(=O)c2cccs2)cc1,–,inactive: -29.7%
Cn1c(C(=O)N2CCc3ccccc3C2)cc2c(=O)n3ccccc3nc21,"inconclusive: 44.7 µM [inhibitor, partial curve, poor fit]",–
COc1ccc(S(=O)(=O)NCC(=O)N(CC(=O)NCC2CCCO2)Cc2ccccc2)cc1 (stereo not drawn),–,inactive: -1.3%
COc1ccccc1CC(=O)NCCn1ccn2nc(-c3ccc(C)c(C)c3)cc2c1=O,"inconclusive: 70.8 µM [inhibitor, single point]",–
Cc1ccc(N=Nc2ccc(O)c(P(=O)(c3ccccc3)c3ccccc3)c2)cc1,"inconclusive: 6.31 µM [inhibitor, full curve, poor fit]",–
CCc1nnc(NS(=O)(=O)c2ccc(NC(=S)NC(=O)/C=C/c3ccccc3)cc2)s1,active: 22.4 µM,–

Compound,Potency,"activity change, negative = inhibition"
Clc1ccc(C2=NNC(=NCc3ccc4c(c3)OCO4)SC2)cc1,"inconclusive: 50.1 µM [inhibitor, partial curve, poor fit]",–
COC(=O)c1ccc(NCc2cc(O)ccc2O)cc1O,active: 5.01 µM,–
CC(=O)Nc1ccc(C2NC(=S)N(c3ccccc3C(F)(F)F)C(C)=C2C(=O)N2CCOCC2)cc1 (stereo not drawn),"inconclusive: 44.7 µM [inhibitor, partial curve, poor fit]",–
COc1ccc(-c2nnc(SCCC(=O)O)n2-c2ccccc2)cc1,"inconclusive: 50.1 µM [inhibitor, partial curve, poor fit]",–
CC(C)OP(=O)(OC(C)C)C(Nc1ccccc1)c1cccc2c1OCO2 (stereo not drawn),–,inactive: 8.72%
Oc1cc(Nc2ccncc2)cc2cccnc12,–,inactive: -1.81%
CC(C)NC(=O)c1ccc2c(=O)n(CC3CCCO3)c(=S)[nH]c2c1 (stereo not drawn),–,inactive: 6.88%
Cc1c(NC(=O)c2cccc(NC(=O)Cc3ccccc3Cl)c2)c(=O)n(-c2ccccc2)n1C,"inconclusive: 100 µM [inhibitor, single point]",–
COc1ccc(OCCCC(=O)Nc2nc(-c3ccccn3)cs2)cc1,–,inactive: -10.9%
O=C(O)c1ccc(/C=N/n2cc(-c3ccccc3)[nH]c2=S)cc1,active: 44.7 µM,–
C=CCOc1ccc(/C(O)=C2/C(=O)C(=O)N(CCCN3CCOCC3)C2c2ccc(OC)cc2)cc1 (stereo not drawn),"inconclusive: 15.8 µM [inhibitor, partial curve, poor fit]",–
COc1cccc(-c2nc(CS(=O)(=O)CC(=O)NCCN3CCOCC3)c(C)o2)c1,–,inactive: -5.97%
CC(C)CC(=O)NCCc1noc(-c2ccncc2)n1,–,inactive: 26.3%
Cn1cc(CCNC(=O)CC2C(=O)NCCN2Cc2cccc(Oc3ccccc3)c2)cn1 (stereo not drawn),–,inactive: -1.62%
COc1ccccc1NC(=O)c1oc2ccccc2c1NC(=O)c1c(F)cccc1F,"inconclusive: 112 µM [inhibitor, partial curve, poor fit]",–
Fc1cccc(Cn2ccc(-c3ccc4c(c3)OCO4)n2)c1,"inconclusive: 126 µM [inhibitor, partial curve, poor fit]",–
O=C(O)CCc1ccc(-c2ccc(Br)cc2)o1,active: 44.7 µM,–
CC(=O)N(Cc1cccnc1)c1nc2c(C)cc(C)cc2s1,"inconclusive: 15.8 µM [inhibitor, full curve, poor fit]",–
O=C(CCCn1cncn1)N[C@H]1CCOC[C@H]1C1CCOCC1,–,inactive: 3.2%
CCCCCCN1C[C@H](n2cc(C3CC3)nn2)[C@@H](O)C[C@@H]1c1ccc(OC)cc1,"inconclusive: 50.1 µM [inhibitor, partial curve, poor fit]",–
CCOC(=O)COc1ccc2c(=O)c(Oc3ccccc3OC)c(C)oc2c1,–,inactive: 3.34%
CCOC(=O)C1=C(N)Oc2ccc3ccccc3c2C1c1ccc(O)c(OC)c1 (stereo not drawn),"inconclusive: 44.7 µM [inhibitor, partial curve, poor fit]",–
CCN(CC)CCNc1nc(C23CC4CC(CC(C4)C2)C3)cs1,"inconclusive: 44.7 µM [inhibitor, partial curve]",–

Compound,Potency,"activity change, negative = inhibition"
O=C(CSc1ccc2c(c1)OCCO2)NC1c2ccccc2-c2ccccc21,"inconclusive: 44.7 µM [inhibitor, partial curve, poor fit]",–
COc1ccc(C(=O)COC(=O)C(CCSC)NS(=O)(=O)c2ccc(Cl)cc2)cc1 (stereo not drawn),"inconclusive: 44.7 µM [inhibitor, partial curve]",–
Cc1nc(SCc2ccccc2)[nH]c(=O)c1CCC(=O)N1CCCCC1,–,inactive: 2.38%
NC(=O)NCC(=O)N1CCC2(CCC(=O)N(Cc3ccccn3)C2)CC1,–,inactive: 48.6%
Cc1cccc(Cn2c(SCCC(=O)O)nc3c2c(=O)[nH]c(=O)n3C)c1,"inconclusive: 56.2 µM [inhibitor, partial curve, poor fit]",–
Cc1ccc(NC(=S)NCCN(C2CCCCC2)C2CCCC2)cc1C,"inconclusive: 50.1 µM [inhibitor, partial curve, poor fit]",–
COc1ccc(-c2n[nH]c(=S)n2-c2ccc3c(c2)OCCO3)cc1,"inconclusive: 39.8 µM [inhibitor, partial curve, poor fit]",–
c1ccc2c(c1)nc(N1CCOCC1)c1nnnn12,–,inactive: 4.72%
COc1ccc(NC(=O)N2c3ccccc3Sc3ccccc32)cc1OC,"inconclusive: 100 µM [inhibitor, single point]",–
CN(C)S(=O)(=O)c1cccc(C(=O)/C=C/c2cc(-c3cccs3)cs2)c1,"inconclusive: 5.62 µM [inhibitor, full curve, poor fit]",–
Cc1ccc(NS(=O)(=O)c2ccc3[nH]c4c(c3c2)CCCC4)c(C)c1,"inconclusive: 50.1 µM [inhibitor, partial curve, poor fit]",–
COc1ccc(-c2nc3c4ccccc4ccn3c2CC2CCCCC2)cc1OC,"inconclusive: 39.8 µM [inhibitor, partial curve]",–
CN(C)Cc1ccccc1Sc1cccc2ccccc12,–,inactive: -16.3%
Cc1ccc(-c2nc3ccccn3c2Nc2c(C)cccc2C)o1,"inconclusive: 44.7 µM [inhibitor, partial curve, poor fit]",–
Cc1ccc(CN2CCC3(CC2)NC(=O)c2ccccc2O3)cc1,"inconclusive: 31.6 µM [inhibitor, full curve]",–
CCc1nc2c(OCc3ccc(Cl)cc3Cl)cccn2c1N(C)C(=O)C1CC1,"inconclusive: 56.2 µM [inhibitor, partial curve, poor fit]",–
CC1CCc2c(sc3nnn(Cc4ccccc4)c(=O)c23)C1 (stereo not drawn),–,inactive: -10.1%
CN(C(=O)CCc1c[nH]c2ccccc12)c1ccccc1,–,inactive: -7.69%
Cc1csc(Sc2ccc(Cl)cc2)n1,"inconclusive: 100 µM [inhibitor, partial curve, poor fit]",–
CCOCCn1c(COc2ccc(C)cc2)nc2ccccc21,–,inactive: -14.3%
Cc1csc2nc(CCNS(=O)(=O)c3ccc4c(c3)OCCO4)cn12,–,inactive: 17.7%
COc1ccc(C2=NOC(C(=O)NCc3cccnc3)C2)cc1OC (stereo not drawn),–,inactive: -26.8%

# 3 entries picked at random from those above, as already listed:
Compound,Potency,"activity change, negative = inhibition"
O=C(CSc1ccc2c(c1)OCCO2)NC1c2ccccc2-c2ccccc21,"inconclusive: 44.7 µM [inhibitor, partial curve, poor fit]",–
c1ccc2c(c1)nc(N1CCOCC1)c1nnnn12,–,inactive: 4.72%
Cc1csc(Sc2ccc(Cl)cc2)n1,"inconclusive: 100 µM [inhibitor, partial curve, poor fit]",–

# A few values from the results shown.
# activity change, negative = inhibition with `NC(=O)NCC(=O)N1CCC2(CCC(=O)N(Cc3ccccn3)C2)CC1` reads inactive: 48.6%
# activity change, negative = inhibition with `CC1CCc2c(sc3nnn(Cc4ccccc4)c(=O)c23)C1` (stereo not drawn) reads inactive: -10.1%
